According to PubChem BioAssay AID445 (National Center for Advancing Translational Sciences (NCATS), 2006):
This is one part of the list. These are further read-outs of the screen, such as a control signal, another cell line or another target. No call is given for them. The list favours compounds with an active or inconclusive main result. Words in brackets tell the shape of the fitted curve; partial curves, single points and poor fits give uncertain potencies.

Assay: IkB Signaling
Settings: ABC-DLBCL IkBa-CBG/CBR dual luciferase ratio (green luciferase fused to IkBa over red control in OCI-Ly3 lymphoma cells), 4 h
Summary of the method: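 In this assay, an IκBα–CBG68 fusion accumulates when IKK-driven degradation is blocked; native CBR normalizes for cell number. OCI-Ly3 cells were treated 4 h with compound and doxycycline, then green and red light read after Chroma-Glo addition.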

[1] = measured here: control luc red channel unless noted
[2] = measured here: IkB-luc green channel
[3] = measured here: control luc red channel

## COc1ccc(NC(=O)c2c(N)c(C(=O)c3ccc(C)cc3)n3ccccc23)cc1OC
[1]
  AC50: 1.58 µM [falling, partial curve]

## CCN1CCN(Cc2nc3cc(NC(=O)c4ccccc4[N+](=O)[O-])ccc3n2CC)CC1
[1]
  AC50: 31.6 µM [falling, single point]

## COc1ccc(NC(=O)c2ccc3c(c2)c(C)c(C)n3Cc2ccc(F)cc2)cc1
[1]
  AC50: 7.94 µM [rising, partial curve]

## O=C(Nc1cccc(F)c1)c1ccc2c(c1)OCO2
[1]
  AC50: 39.8 µM [falling, single point]

## Cc1c(Cl)cccc1-n1ncc(C(=O)NCc2cccs2)c1C1CCN(C(=O)OC(C)(C)C)CC1
[1]
  AC50: 20 µM [falling, partial curve]

## O=C(CSc1nnnn1-c1ccc(Cl)cc1)N1CCc2ccccc2C1
[1]
  AC50: 31.6 µM [falling, single point]

## COc1ccc(-n2c(Cc3cccn3C)nnc2SCC(=O)Nc2cccc(Cl)c2)cc1
[1]
  AC50: 12.6 µM [falling, partial curve]

## COc1ccc(Cl)cc1NC(=O)Cn1nc(Cc2ccncc2)c2ccccc2c1=O
[1]
  AC50: 15.8 µM [falling, single point]

## Cc1ccc(OC(=O)CSc2nnc(-c3cccs3)o2)cc1C
[1]
  AC50: 20 µM [falling, single point]

## CCOc1ccc(-n2c(SCC(=O)N3CCCCCC3)nc3c([nH]c4ccccc43)c2=O)cc1
[1]
  AC50: 0.0158 µM [rising, full curve, poor fit]

## CCn1cc(C(=O)NCCc2ccc(OC)c(OC)c2)c(=O)c2cc(S(=O)(=O)N3CCC(C)CC3)ccc21
[1]
  AC50: 0.251 µM [rising, full curve]

## CC(C)Cn1c(N)c(C(=O)COC(=O)c2ccc3ccccc3n2)c(=O)n(C)c1=O
[1]
  AC50: 25.1 µM [falling, single point]

## CC(C)(C)C1CCc2c(sc3nnn(CCOc4ccccc4)c(=O)c23)C1 (centres undefined)
[1]
  AC50: 5.01 µM [falling, partial curve]

## COc1cc(NC(=O)c2nc3ccccc3nc2N2CCCCC2)cc(OC)c1OC
[1]
  AC50: 15.8 µM [falling, partial curve]

## Cc1cccc(-c2nc(CSCC(=O)NCCc3ccc(Cl)cc3)c(C)o2)c1
[1]
  AC50: 15.8 µM [falling, partial curve]

## Cc1ccc(CNC(=O)c2ccc(-c3nc(CS(=O)c4ccccc4)c(C)o3)cc2)cc1 (centres undefined)
[1]
  AC50: 25.1 µM [falling, single point]

## CCCCn1c2c(c(=O)n(C)c1=O)C(CC(=O)OCC(=O)Nc1cccc(C(F)(F)F)c1)C(=O)N2 (centres undefined)
[1]
  AC50: 15.8 µM [falling, partial curve]

## O=C(CCCn1c(=S)[nH]c2cc3c(cc2c1=O)OCO3)N1CCN(c2ccccc2)CC1
[1]
  AC50: 10 µM [falling, partial curve]

## COc1cccc(-c2nn(C)c3sc(C(=O)Nc4ccc5c(c4)OCCO5)cc23)c1
[1]
  AC50: 2 µM [falling, full curve]

## COCCn1ccc2c(OCC(=O)Nc3ccccc3F)cccc2c1=O
[1]
  AC50: 0.0316 µM [falling, full curve]

## CCOC(=O)N1CCc2c(sc3c2c(=O)n(CCc2ccccc2)c(=O)n3CC(=O)Nc2cccc(C)c2)C1
[1]
  AC50: 10 µM [falling, partial curve]

## N#C/C(=C/c1cn(Cc2ccccc2Cl)c2ccccc12)C(=O)Nc1cccc(Cl)c1
[1]
  AC50: 0.794 µM [falling, full curve]

## Cc1cc(C)c(NC(=O)Cn2c(=O)nc(-c3ccccc3)c3cc(Cl)ccc32)c(C)c1
[1]
  AC50: 12.6 µM [falling, partial curve]

## COc1ccccc1N=c1oc2c(OC)cccc2cc1C(=O)NCc1ccco1
[1]
  AC50: 5.01 µM [falling, partial curve]

## COc1cc(NC(=O)N2CCC3(CC2)Nc2cc(F)ccc2-n2cccc23)cc(OC)c1OC
[1]
  AC50: 25.1 µM [falling, partial curve, poor fit]

## CCc1cccc(CC)c1-n1nnc2c(sc3nc(C)cc(C)c32)c1=O
[1]
  AC50: 0.2 µM [rising, full curve, poor fit]

## O=C(CSc1nc(-c2ccc(F)cc2)[nH]c1-c1ccccc1)Nc1ccccc1
[2]
  AC50: 39.8 µM [rising, single point]
[3]
  AC50: 5.01 µM [falling, single point]

## O=C(OCc1nnc(-c2ccccc2)o1)c1ccc2c(c1)OCCO2
[1]
  AC50: 15.8 µM [falling, partial curve]

## Clc1ccc(OCc2nc3ccccc3n2Cc2ccccc2)c(Cl)c1
[1]
  AC50: 25.1 µM [falling, single point]

## COc1ccc(S(=O)(=O)c2c(SC)nn(CC(=O)Nc3cccc(C)c3C)c2N)cc1
[1]
  AC50: 12.6 µM [falling, partial curve]

## Cc1ccc2c(c1)NC(=O)c1cccnc1O2
[1]
  AC50: 6.31 µM [rising, partial curve]

## Cc1[nH]nc2c1C(c1ccc(-c3ccccc3C#N)o1)C(C#N)=C(N)O2 (centres undefined)
[1]
  AC50: 39.8 µM [falling, single point]

## Cc1cccc(OCC(O)Cn2c(=N)n(CCN3CCCCC3)c3ccccc32)c1 (centres undefined)
[1]
  AC50: 25.1 µM [falling, partial curve]

## CCn1cc(C(=O)NCc2ccc(C)cc2)c(=O)c2cc(S(=O)(=O)N(C)C3CCCCC3)ccc21
[1]
  AC50: 3.98 µM [falling, full curve]

## CCc1ccc(CN(Cc2ccco2)C(=O)COc2ccc(Cl)c(C)c2)cc1
[1]
  AC50: 31.6 µM [falling, partial curve]

## CCC(C)NC(=O)CSc1nc2c(sc3ccccc32)c(=O)n1CCc1ccc(OC)c(OC)c1 (centres undefined)
[1]
  AC50: 0.00794 µM [rising, full curve, poor fit]

## CCN(c1ccccc1)S(=O)(=O)c1ccc(Oc2ccc(-n3ccnc3)cc2)nc1
[1]
  AC50: 31.6 µM [falling, partial curve]

## CCC(C)NC(=O)c1cc(-c2ccccc2O)on1 (centres undefined)
[1]
  AC50: 0.00398 µM [falling, full curve]

## Cc1cc(C)n(-c2nc3cc(Cl)ccc3nc2Nc2ccc(CC(=O)O)cc2)n1
[1]
  AC50: 20 µM [falling, partial curve]

## Cc1ccc(Nc2nc(N)nc(CN3CCN(c4ccccc4)CC3)n2)cc1Cl
[1]
  AC50: 12.6 µM [falling, partial curve]

## CCCCn1c(NCc2cc(Br)ccc2O)nc2ccccc21
[1]
  AC50: 20 µM [falling, partial curve]

## Cc1cccc(NC(c2ccccc2C)c2ccc3ccc(C)nc3c2O)n1 (centres undefined)
[2]
  AC50: 6.31 µM [rising, single point]
[3]
  AC50: 25.1 µM [falling, single point]

## Cc1ccc(C(=O)Oc2c(S(=O)(=O)c3ccccc3)c(C)nn2-c2ccccc2)cc1
[1]
  AC50: 10 µM [falling, partial curve]

## CN1C(=O)c2ccccc2Sc2ccc(NC(=O)NCc3cccc(Cl)c3)cc21
[1]
  AC50: 7.94 µM [falling, partial curve]

## COc1ccc(-n2c(-c3ccc(C)cc3)cc3c2CC(C)(C)CC3=O)c(OC)c1
[1]
  AC50: 31.6 µM [falling, partial curve]

## Cc1c(-c2nc(-c3ccccc3F)no2)nnn1-c1cc(F)ccc1F
[1]
  AC50: 0.794 µM [rising, full curve]

## O=c1oc2cc(O)ccc2cc1-c1nnc(Nc2ccccc2F)s1
[1]
  AC50: 0.398 µM [falling, full curve]

## CCn1c(C(=O)N2CCC(C(=O)NCCCSC3CCCCC3)CC2)cc2sccc21
[1]
  AC50: 12.6 µM [falling, partial curve]

## COCCCNC(=O)c1ccc2nc3ccccc3c(=O)n2c1
[1]
  AC50: 3.16 µM [falling, full curve]

## COc1ccc(CCNC(=O)c2ccc3c(c2)N(Cc2ccccc2F)C(=O)c2ccccc2S3=O)cc1OC (centres undefined)
[1]
  AC50: 0.631 µM [rising, full curve]

## CCOC(=O)c1ccc(NS(=O)(=O)c2ccc(SC)cc2)cc1
[1]
  AC50: 15.8 µM [falling, partial curve]

## O=C(CN1C(=O)COc2ccc(S(=O)(=O)N3CCCC3)cc21)N1CCN(c2cccc(C(F)(F)F)c2)CC1
[1]
  AC50: 3.98 µM [falling, partial curve]

## COc1ccc(N2CCN(S(=O)(=O)CCNC(=O)COc3ccccc3F)CC2)cc1
[1]
  AC50: 10 µM [falling, partial curve, poor fit]

## O=C(c1ccco1)N1CCN(C(=O)C2CC(c3ccc(Cl)c(Cl)c3)=NO2)CC1 (centres undefined)
[1]
  AC50: 20 µM [falling, single point]

## Cc1ccc2c(c1C)NC(=O)CC2c1ccc(Cl)cc1Cl (centres undefined)
[1]
  AC50: 39.8 µM [falling, single point]

## Cc1ccc(OCC(=O)Nc2cccc(C(=O)OCc3cc(=O)n4nc(C)sc4n3)c2)cc1
[1]
  AC50: 3.16 µM [falling, full curve]

## Cc1ccc2c(c1)nnn2C1CCN(CC(=O)N2c3ccccc3CC2C)CC1 (centres undefined)
[1]
  AC50: 31.6 µM [falling, single point]

## O=C(O)c1ccc(NC(=O)c2cn(-c3ccccc3)nc2-c2ccc(Br)cc2)cc1
[1]
  AC50: 10 µM [falling, partial curve]

## O=C(CCCCn1c(=O)c2ccccc2n(CC(=O)Nc2ccc(F)cc2)c1=O)NCc1ccco1
[1]
  AC50: 0.398 µM [falling, full curve]

## Cc1c(-c2nc(N)nc(Nc3ccccc3F)n2)oc2ccccc12
[1]
  AC50: 0.00794 µM [falling, full curve]

## COc1ccc(OC)c(S(=O)(=O)N(C)CC(=O)N2CCN(c3cccc(Cl)c3)CC2)c1
[1]
  AC50: 25.1 µM [falling, partial curve]

## CCOc1ccc(OCc2ccc(C(=O)OCc3ccccn3)o2)cc1
[1]
  AC50: 25.1 µM [falling, partial curve]
